Consider five molecules from patent US20230323410A1, “BACTERIAL CELLS AND METHODS FOR PRODUCTION OF 2-FLUORO-CIS,CIS-MUCONATE” (priority 2020, published 2023).

For one data set, the system named is P. putida KT2440. The data set is described as follows: Shaken flask fermentation with 10 mM 2-FBz or 3-FBz. It counts as cell-based, Pseudomonas putida.
The test system of another data set is P. knackmussii. Described as above. Format: cell-based, Pseudomonas knackmussii.

For the molecule `O=C(O)c1ccccc1F` [Strain 2-FBz, 2-fluorobenzoic acid], the “time to complete consumption” value with P. putida KT2440 (10 mM 2-FBz, 30 mM glucose) is at most 20 h.

Consider `O=C(O)/C=C\C=C/C(=O)O` [ccMA, cis,cis-muconic acid], for which the “maximum concentration in the culture supernatant” value in the data set on P. knackmussii (10 mM 2-FBz, after 30 h) is 1.55 mM.

`O=C(O)c1cccc(F)c1` [Strain 3-FBz, 3-fluorobenzoic acid]: in the data set with P. knackmussii (10 mM 3-FBz supplied), the total concentration consumed is listed as 2.93 mM.

Take `O=C(O)/C=C\C=C(\F)C(=O)O` [Strain 2-FMA, 2-fluoro-cis,cis-muconate]: in the data set with P. putida KT2440 (10 mM 3-FBz, product 2-FMA), the “concentration at the end of the fermentation” value was found to be 1.38 mM. Further, in the data set with P. putida KT2440 (from 10 mM 2-FBz), the “concentration after substrate depletion” value is listed as 1.34 mM. Further, in the data set on P. putida KT2440 (substrate 3-FBz), the “product yield YSP” value was determined as 0.41 mol mol-1. Moreover, in the data set with P. knackmussii (from 3-FBz), the YSP amounted to 0.41 mol mol-1, the amount produced came to 1.64 mM and the “product as share of the substrate” value was 56%. Further, in the data set on P. knackmussii (out of 6 mM 2-FBz consumed), the amount produced result was “about 1 mM”. For the same molecule, the “product yield coefficient YSP” value in the data set with P. knackmussii (substrate 2-FBz paragraph) is reported as 0.14 mol mol^−1.

For `Oc1cccc(F)c1O` [Strain 3-FC, 3-fluorocatechol], the “concentration reached within the first 7 h” value in the data set on P. putida KT2440 (10 mM 3-FBz) was 1 mM. Moreover, the “concentration at the end of the fermentation” value in the data set with P. putida KT2440 (10 mM 3-FBz, intermediate 3-FC) was 0.52 mM. Further, the “initial increase in the culture supernatant up to” value in the data set with P. knackmussii (10 mM 3-FBz, completely re-consumed until 20 h) was 0.94 mM.
